Source: US11866736B2, “Protein prostheses for mitochondrial diseases or conditions” (The General Hospital Corporation, priority 2015, dated 2024)
At least one compound was matched to its structure with a doubt left.

Tested on: HeLa Tet3G cells
Experiment: Cell proliferation assays: rescue of the proliferation defect induced by respiratory chain inhibitors (nuclei counting)
Type: cell-based, human
Details: HeLa Tet3G Luciferase cells, 1 μM piericidin, compound added to medium, 3 days
Method: Five hundred HeLa Tet3G NDI1, Luciferase, LbNOX or mitoLbNOX cells were seeded in 200 μl of DMEM (DMEM (US Biological, D9800), 3.7 g/L NaHCO3, 10% dialyzed FBS (Life Technologies, 26400-044)) per well in a black 96-well plate with clear bottom (Corning, 3904). Twenty four hours after seeding, media was exchanged to DMEM without pyruvate (DMEM (US Biological, D9802), 15.9 mg/L phenol red, 3.7 g/L NaHCO3, 10% dialyzed FBS (Life Technologies, 26400-044))±10 μg/ml chloramphenicol±30 ng/ml ethidium bromide±1 mM pyruvate±300 ng/ml doxycycline. After 0, 2, 3, 4, 5 and 6 days, media was aspirated and cells were fixed by adding 100 μl of 4% paraformaldehyde in PBS and incubating at room temperature for at least 30 min. Paraformaldehyde solution was aspirated and cells were stained with 200 μl of 1 μg/ml Hoechst 33345 in PBS. Plates were covered with sealing aluminum foil and stored at 4° C. before counting cells in each well with Molecular Dynamics IMAGEXPRESS® Ultra (see “Nuclei counting using Molecular Devices IMAGEXPRESS® Ultra,” below). […]
Images of 96-well plates with fixed cells stained with Hoechst 33345 were collected using Molecular Devices IMAGEXPRESS® Micro XLS. […] Images were analyzed and nuclei number per well was counted using CellProfiler 2.0 image analysis software (Carpenter, et al., Genome Biol., 7:R100, 2006; and Kamentsky, et al., Bioinformatics, 27:1179, 2011). […]

| SMILES | rescue of piericidin induced proliferation defect by supplementation |
| --- | --- |
| CC(=O)C(=O)O [pyruvate, reference compound] | rescue |
| O=C(O)CC(=O)C(=O)O [oxaloacetate, reference compound] | rescue |
